What was measured:
[1] = test system: Jurkat; assay: Cytotoxicity against human Jurkat cells after 48 hrs by MTT assay; assay type: functional, cell-based
[2] = test system: MDA-MB-231; assay: Antimigratory activity against human MDA-MB-231 cells after 6 hrs by Boyden chamber migration assay; assay type: functional, cell-based; conditions: MDA-MB-231, 6 h

COc1cc2c(c(OC)c1OC)-c1ccc(OC)c(=O)cc1[C@@H](NC(C)=O)CC2 [COLCHICINE]
IC50 [1]: 7.7 nM | IC50 [2]: 475 nM
